Six molecules from paper PMC4392834 can be followed below.

No constants are given. Whether binding was seen depends on the method and setting. In cells and extracts the contact can be indirect.

B1: VN-Kn (protein, UniProt P56721 1-575)
chain: MEWGRKLYPSAVSGPRSAGGLMFGLPPTAAVDMNQPRGPMTSLKEEPLGSRWAMQPVVDQSNLGIGRAHFEKQPPSNLRKSNFFHFVIALYDRAGQPIEIERTAFIGFIEKDSESDATKTNNGIQYRLQLLYANGARQEQDIFVRLIDSVTKQAIIYEGQDKNPEMCRVLLTHEVMCSRCCDKKSCGNRNETPSDPVIIDRFFLKFFLKCNQNCLKNAGNPRDMRRFQVVISTQVAVDGPLLAISDNMFVHNNSKHGRRAKRLDTTEGTGNTSLSISGHPLAPDSTYDGLYPPLPVATPCIKAISPSEGWTTGGATVIIVGDNFFDGLQVVFGTMLVWSELITSHAIRVQTPPRHIPGVVEVTLSYKSKQFCKGSPGRFVYVSALNEPTIDYGFQRLQKLIPRHPGDPEKLQKEIILKRAADLVEALYSMPRSPGGSTGFNSYAGQLAVSVQDGSGQWTEDDYQRAQSSSVSPRGGYCSSASTPHSSGGSYGATAASAAVAATANGYAPAPNMGTLSSSPGSVFNSTSMSAVSSTWHQAFVQHHHAATAHPHHHYPHPHQPWHNPAVSAATAAAV
B2: VN-Mef2 (protein, UniProt P40791 1-540)
chain: MGRKKIQISRITDERNRQVTFNKRKFGVMKKAYELSVLCDCEIALIIFSSSNKLYQYASTDMDRVLLKYTEYNEPHESLTNKNIIEKENKNGVMSPDSPEAETDYTLTPRTEAKYNKIDEEFQNMMQRNQMAIGGAGAPRQLPNSSYTLPVSVPVPGSYGDNLLQASPQMSHTNISPRPSSSETDSGGMSLIIYPSGSMLEMSNGYPHSHSPLVGSPSPGPSPGIAHHLSIKQQSPGSQNGRASNLRVVIPPTIAPIPPNMSAPDDVGYADQRQSQTSLNTPVVTLQTPIPALTSYSFGAQDFSSSGVMNSADIMSLNTWHQGLVPHSSLSHLAVSNSTPPPATSPVSIKVKAEPQSPPRDLSASGHQQNSNGSTGSGGSSSSTSSNASGGAGGGGAVSAANVITHLNNVSVLAGGPSGQGGGGGGGGSNGNVEQATNLSVLSHAQQHHLGMPNSRPSSTGHITPTPGHDKYEGYPYRALMGHNPRWNLNFAGAPSSDQDVRLAAVAVQQQQQQPHQQQQLGDYDAPNHKRPRISGGWGT
B3: VN-Pan (protein, UniProt P91943 1-751)
chain: MPHTHSRHGSSGDDLCSTDEVKIFKDEGDREDEKISSENLLVEEKSSLIDLTESEEKGHKISRPDHSPVFNKLDTHAPSFNMGYLVSPYSYANGSPSGLPVTMANKIGLPPFFCHNADPLSTPPPAHCGIPPYQLDPKMGLTRPALYPFAGGQYPYPMLSSDMSQVASWHTPSVYSASSFRTPYPSSLPINTTLASDFPFRFSPSLLPSVHATSHHVINAHSAIVGVSSKQECGVQDPTTNNRYPRNLEAKHTSNAQSNESKETTNDKKKPHIKKPLNAFMLYMKEMRAKVVAECTLKESAAINQILGRRWHELSREEQSKYYEKARQERQLHMELYPGWSARDNYGYVSKKKKRKKDRSTTDSGGNNMKKCRARFGLDQQSQWCKPCRRKKKCIRYMEALNGNGPAEDGSCFDEHGSQLSDDDEDDYDDDKLGGSCGSADETNKIEDEDSESLNQSMPSPGCLSGLSSLQSPSTTMSLASPLNMNANSATNVIFPASSNALLIVGADQPTAQQRPTLVSTSGSSSGSTSSISTTPNTSSTVSPVTCMTGPCLGSSQERAMMLGNRFSHLGMGLSPPVVSTSTSKSEPFFKPHPTVCNNPIFALPSIGNCSLNISSMPNTSRNPIGANPRDINNPLSINQLTKRREYKNVELIEASESKTIVAHAATSIIQHVAVNGYHANHSLLNSNLGHLHHQLNNRTENPNRSEQTMLSVSNHSVNSSECHKESDSQAIVSSNPPNAGSSDNGVISVS
B4: VN-Empty spiracles (protein, UniProt P18488 1-494)
chain: MTKMIPPVPTAAAAVMMPTPKQKIGFSIESIVGNDVSTAGGNSTPDLSGPQSPPPGERNVPGSPPQTPPATLTLIPGSPPHHLMAPPAHGLPYPHPHAQQQHLQAPHPHPHLSPAQQHVLHQHLLMQQQHPGTPKSHQDIQELLQRLHHNAAMASGLSPLQTRLSPETEQPQMAVSLKRERSPAPPAMEQAENPAQRIQPPHTPPKSVSPQSSQPSSSPTLLISSPHATPPQQQQQQPPPNYPKPAMMHPGGAGPMMMPGMPPAGLVRPFPMGPGGPPMPQGQPGLPDIKALPPYINAPPELPPQHNPHLIAAAQFQMAAALQAGHVLGPAAAAAAAAGLPPHAAQFMPNPGMARDSYQLYPWLLSRHGRIFPHRFPGSFLVPPFRKPKRIRTAFSPSQLLKLEHAFESNQYVVGAERKALAQNLNLSETQVKVWFQNRRTKHKRMQQEDEKGGEGGSQRNMHNGSGDEDDDELIDMEMDECPSDEEHELDASH
B5: VN-Zfh-1 (protein, UniProt P28166 1-1054)
chain: MLSCLAPSSSRFGQEDTIIQQSMPSTSPFAMQFPSLASTLLHHNQSPKHSNPGSSGIQDAHPNQPGAAADAFLVKCTQCHKRFPEYQSLSEHIASEHPHDKLNCGAAQPESDAEDEQSNMSGSSRRYAKSPLASNNNSSTANANNNSTSSQSMNNNSELAKNHNSANKMSPMCSPGSLTPGDLFAQLQHPPPQLPPHLHAQFMAAAASLAMQSARTASSPSQQQQQQLQQQQQLQQQQQHQMAMQQLLPPQLPGSNSSVGSNSAYDLDLSAPRSTSSPGSTTGDLSGAYPCMQCTASFASREQLEQHEQLHSPCGPAAVSNVSQTCRICHKAFANVYRLQRHMISHDESALLRKFKCKECDKAFKFKHHLKEHVRIHSGEKPFGCDNCGKRFSHSGSFSSHMTSKKCISMGLKLNNNRALLKRLEKSPGSASSASRRSPSDHGKGKLPEQPSLPGLPHPMSYFASDAQVQGGSAAPAPFPPFHPNYMNAALLAFPHNFMAAAAGLDPRVHPYSIQRLLQLSAAGQQQREEEREEQQKQQQHDEEETPDEPKLVMDIEEPETKEMAPTPEATEAATPIKREESREASPDPESYRSSSQAIKQEQEPLNVAEERQTPVEEHAPVEHAADLRCSRCSKQFNHPTELVQHEKVLCGLIKEELEQHFQQQQATSFALASASEEDEEDEEMDVEEEPRQESGERKVRVRTAINEEQQQQLKQHYSLNARPSRDEFRMIAARLQLDPRVVQVWFQNNRSRERKMQSFQNNQAAGAAPPMPIDSQASLTREDQPLDLSVKRDPLTPKSESSPPYIAPPSGEALNPEAINLSRKFSTSASMSPASISPSSAAALYFGAAPPPSPPNSQLDSTPRSGQAFPGLPPYMLPMSLPMEALFKMRPGGDFASNHALMNSIKLPDYRGTSLSPGGSEKRSWRDDDSRISHEDEFGAGVLMPPKPRRGKAETHGHAGDPDLPYVCDQCDKAFAKQSSLARHKYEHSGQRPYQCIECPKAFKHKHHLTEHKRLHSGEKPFQCSKCLKRFSHSGSYSQHMNHRYSYCKPYRE
B6: VN-Eyes absent (protein, UniProt Q05201 1-766)
chain: MVTLMPYNYAAPRCGLIDKMIEPKVKRPKTDHTDTHERNRLCNLSQQQQQQQPQQQQTHQQQQQQQQQSHQQSHSSTVLASNGPSSAGAGMGVGVGGGGGSGGGVGGGVGQCSPLGLPPQSQPLQPTIGSLASLSGHYSNGNANPNVNSSSCSLATASSFAQSAGSSFSTYQQAGGTSGGVSGEDGVVGGATVMSHWTHDGTGSSAAVKSESRSPGQVHASLDNGSVAGSNLYGCSSASNPLDGGAVAVNSSAVAAAAAAVYDGKHDYYYYNSMQQYTPPPFYSGYGTPYAAATAARQAKMEPGAAAAAAAYLTPSYAASGNNNSQLYSSPYAGYNNFGQQDYGGYYNEQYGNYYSPANYSPYAVSSPSSSASHGHGFHVAASSNLSESPTDTHSTTPVHQTTHSPHSPLPISPSTGSGIGPLGNVSAAAAAAALNSSGGSSVGTAGSGGVATSKTTPTGKTGRARGRRHQQPSPTRSTASDTGNSEAVKPPERVFVWDLDETLIIFHTLLSGSYANRYTKDHSSLMTIAFRMEEMVFNMADTHFFFNEIEECDQVHIDDVSSDDNGQDLSAYNFATDGFHTNTPPGAPPNLCLPTGVRGGVDWMRKLAFRYRKIKDIYNSYRGNVGTLLGPGKREAWLQIRSEIEVATDNWATLALKCLSMISQRENCVNVLVTSTQLAPALAKVLLFGLGGIFNIENIYSAHKIGHETCYERIVTRFGRKSTYVVIGDGNEEETAAKAMNFPFWRISAHSDIRALYTALDMGFL

This test concerns the target HoxE (VC fusion) (Nematostella). In words: split reporter; Venus BiFC: VC-Hox and VN-TF co-expressed in live Drosophila embryos with the corresponding Hox-Gal4 driver (abdA-Gal4 for AbdA); epidermis, stage 10-12, quantified at stage 10; affected if equal or lower than 50% of wild type, stronger if 120% or more.
B1: the binding entry is on record as “no binding”.
Consider B2, for which the binding entry was “no binding”.
Take B3: the binding result was “no binding”.
As for B4, the binding entry is “no binding”.
In the case of B5 it was “no binding”; in that of B6, “no binding”.
